Article PMC8376927
These are yes or no findings as the source states them, for the method shown. Some results given as binding are weak or reduced against the parent protein; the word gives no strength.

Biological target: T1, FAM-aidDAPK-pS318 peptide (FAM-RRRWKLpSFSIV) (human)
T1 sequence (peptide, FAM on the N-terminus; phosphoserine at 318): RRRWKLSFSIV
Experiment: fluorescence polarisation; 14-3-3γ (160 µM and binary dilution series) incubated 1 h with 50 nM FAM-labelled peptide; 20 mM HEPES-NaOH pH 7.4, 150 mM NaCl, 0.1% Tween 20, 0.1% BSA; one-site-binding model; apparent KD; both purified

binding: binds weakly
B1: Human 14-3-3γ WT (protein, UniProt P61981 1-247)
chain: MVDREQLVQKARLAEQAERYDDMAAAMKNVTELNEPLSNEERNLLSVAYKNVVGARRSSWRVISSIEQKTSADGNEKKIEMVRAYREKIEKELEAVCQDVLSLLDNYLIKNCSETQYESKVFYLKMKGDYYRYLAEVATGEKRATVVESSEKAYSEAHEISKEHMQPTHPIRLGLALNYSVFYYEIQNAPEQACHLAKTAFDDAIAELDTLNEDSYKDSTLIMQLLRDNLTLWTSDQQDDDGGEGNN
